Assay results: PubChem BioAssay AID504444 (National Center for Advancing Translational Sciences (NCATS), 2011)
Out of some 360,000 compounds screened, about 7,500 (2.1%) were called active. Inconclusive results, whose numbers are uncertain, are shown with a selection of clear calls. Calls come from the whole dose curve; as a rule, active = well fitted inhibition curve with a large enough effect; inconclusive = small, poorly fitted or top-dose-only effect, or effect the other way; inactive = flat fitted curve, though single readings scatter. Where the call is inconclusive, the potency comes from a doubtful curve fit.

Experiment: Nrf2 qHTS screen for inhibitors; note: nearly all actives have a fitted effect of over 60% in size
Settings: A549 ARE-Fluc reporter, luciferase luminescence, 18-24 h; activity change, negative = inhibition: at 46 µM (top of the series)
In short: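 In this cell-based qHTS, ARE-driven firefly luciferase in A549 cells reports Nrf2 activity; the luminescent signal after BugLite lysis is the measured value, with a prior CellTiter-Fluor read for cell health.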
% is set by controls: 0 for no effect and ±100 for the full control effect; potency is the fitted concentration of half-maximal effect.

SMILES | activity change, negative = inhibition | Potency
Cc1ccc(S(=O)(=O)N2CCN(c3ccc([N+](=O)[O-])cn3)CC2)cc1 | inactive: 12.6% | 
C=CCNC(=O)c1c(Cl)cnn1-c1ccc(C)cc1 |  | inconclusive: 29.1 µM [activator, single point]
CCc1nc2nc(C)cc(Nc3ccc(OC)cc3)n2n1 | inactive: 8.13% | 
O=S(=O)(Nc1nc2ccccc2nc1Nc1cccc(S(=O)(=O)N2CCCCC2)c1)c1ccccc1 |  | active: 11.6 µM
Cc1ccc(S(=O)(=O)N2CCN(CC(=O)Nc3ccc4c(c3)CCC4)CC2)cc1C |  | inconclusive: 10.3 µM [falling, partial curve]
CCOC(=O)C1=C(C)Nc2sc(C(=O)c3ccc(Br)cc3)c(N)c2C1c1ccc(C(=O)OC)cc1 (centres undefined) |  | inconclusive: 16.4 µM [falling, partial curve, poor fit]
CC(C)(C)/C(O)=C/c1nc2cc(Cl)ccc2oc1=O | inactive: 10.3% | 
C/C(=N\NC(=O)c1ccc(F)cc1)c1ccccn1 |  | inconclusive: 3.26 µM [falling, partial curve]
O=C(CC1CCCC1)Nc1ccc(Cl)c(S(=O)(=O)N2CCOCC2)c1 |  | inconclusive: 18.4 µM [falling, single point]
O=C1SC(SCc2ccccc2)=N/C1=C\c1ccco1 | inactive: -26.9% | 
CC(C)c1nc2sc3c(NCc4ccco4)ncnc3c2c2c1COC(C)(C)C2 |  | inconclusive: 18.4 µM [falling, single point]
O=C(CSc1nnc(C2COc3ccccc3O2)o1)N1CCCc2ccccc21 (centres undefined) |  | inconclusive: 1.84 µM [activator, partial curve, poor fit]
Nc1nonc1-c1noc(N2CCOCC2)n1 |  | inconclusive: 13 µM [activator, partial curve, poor fit]
O=C(Cn1cc(CNCc2ccccc2)nn1)Nc1cc(C(F)(F)F)ccc1Cl | inactive: 10.3% | 
Fc1cccc(Cl)c1COc1ccc(-c2nnco2)cc1 |  | inconclusive: 25.9 µM [falling, single point]
COc1cccc(Nc2nc(C#N)nc(NC3CCCC3)n2)c1 |  | inconclusive: 18.4 µM [falling, single point]
CC(=O)Nc1cccc(-c2csc(Nc3cccc(C)n3)n2)c1 |  | inconclusive: 0.259 µM [activator, full curve]
C[C@@H]1CN([C@@H](C)CO)C(=O)c2cc(NC(=O)C3CC3)ccc2O[C@@H]1CN(C)Cc1ccc(Cl)c(Cl)c1 |  | inconclusive: 29.1 µM [falling, single point]
CN=c1sc2ccccc2n1CC(O)COc1ccccc1 (centres undefined) |  | inconclusive: 32.6 µM [falling, partial curve, poor fit]

Given as tab-separated lines: part of the list above.
SMILES	activity change, negative = inhibition	Potency
CC(C)c1nc2sc3c(NCc4ccco4)ncnc3c2c2c1COC(C)(C)C2		inconclusive: 18.4 µM [falling, single point]
O=C(CSc1nnc(C2COc3ccccc3O2)o1)N1CCCc2ccccc21 (centres undefined)		inconclusive: 1.84 µM [activator, partial curve, poor fit]
